± gives the standard deviation of the averaged measurements. Most values lie at the level of the controls, where differences are scatter.
Columns and labels:
Experiment in all cases: level (log10 ratio to DMSO vehicle control); higher = higher biomarker level / cell amount than vehicle control
[1] = compound: C=C(C)C(=O)OCC(F)(F)C(F)(F)C(F)(F)F [2,2,3,3,4,4,4-Heptafluorobutyl methacrylate]; details: 2200 nM; in DMSO
Experimental: (§1)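 BioMAP Diversity Plus panel of 12 human primary cell co-culture systems (3C, 4H, LPS, SAg, BT, BF4T, BE3C, CASM3C, HDF3CGF, KF3CT, MyoF, Mphg). Compounds were added 1 h before stimulation and left for 24 h (MyoF 48 h; BT 72 h for soluble read-outs or 6 d for IgG). Biomarkers were read by ELISA, cytotoxicity by SRB, PBMC viability and proliferation by Alamar Blue. Each well value was divided by the mean of 8 DMSO control wells on the same plate and log10 transformed; duplicate blinded samples were tested at 4 concentrations.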

[2] = compound: OCC(F)(F)C(F)(F)C(F)(F)C(F)(F)C(F)(F)C(F)(F)C(F)(F)C(F)(F)C(F)(F)C(F)(F)C(F)(F)F [11:1 Fluorotelomer alcohol]; details: in DMSO
Experimental: as §1

[3] = compound: O=C(O)C=CC(F)(C(F)(F)F)C(F)(F)F [3-(Perfluoroisopropyl)-2-propenoic acid]; details: in DMSO
Experimental: as §1

[4] = compound: C=CC(=O)OCC(F)(F)C(F)(F)C(F)(F)C(F)(F)COC(=O)C=C [1H,1H,6H,6H-Perfluorohexane-1,6-diol diacrylate]; details: 2200 nM; in DMSO
Experimental: as §1

[5] = compound: O=C(O)C(F)(F)OC(F)(F)C(F)(F)OC(F)(F)C(F)(F)C(F)(F)C(F)(F)F [Perfluoro-3,6-dioxadecanoic acid]; details: 2200 nM; in DMSO
Experimental: as §1

[6] = compound: O=C(O)C(F)(F)C(F)(F)C(F)(F)C(F)(F)C(F)(F)C(F)(F)C(F)(F)C(F)F [9-H-Perfluorononanoic acid]; details: 2200 nM; in DMSO
Experimental: as §1

[7] = compound: FC(F)C(F)(F)COCC1CO1 [((2,2,3,3-Tetrafluoropropoxy)methyl)oxirane]; details: 2200 nM; in DMSO
Experimental: as §1

Perfluoropropanoic acid = compound: O=C(O)C(F)(F)C(F)(F)F [Perfluoropropanoic acid]; details: 2200 nM; in DMSO
Experimental: as §1

[8] = compound: O=C(O)C(F)(F)OC(F)(F)C(F)(F)OC(F)(F)C(=O)O [Perfluoro-3,6-dioxaoctane-1,8-dioic acid]; details: 2200 nM; in DMSO
Experimental: as §1

[9] = compound: O=P(O)(O)CCC(F)(F)C(F)(F)C(F)(F)C(F)(F)C(F)(F)C(F)(F)C(F)(F)C(F)(F)F [((Perfluorooctyl)ethyl)phosphonic acid]; details: 2200 nM; in DMSO
Experimental: as §1

Perfluorobutanoic acid = compound: O=C(O)C(F)(F)C(F)(F)C(F)(F)F [Perfluorobutanoic acid]; details: 2200 nM; in DMSO
Experimental: as §1

[10] = compound: OCCC(F)(F)C(F)(F)C(F)(F)C(F)(F)C(F)(F)C(F)(F)C(F)(F)C(F)(F)F [8:2 Fluorotelomer alcohol]; details: 2200 nM; in DMSO
Experimental: as §1

Perfluoroundecanoic acid = compound: O=C(O)C(F)(F)C(F)(F)C(F)(F)C(F)(F)C(F)(F)C(F)(F)C(F)(F)C(F)(F)C(F)(F)C(F)(F)F [Perfluoroundecanoic acid]; details: in DMSO
Experimental: as §1

Perfluorooctanamide = compound: NC(=O)C(F)(F)C(F)(F)C(F)(F)C(F)(F)C(F)(F)C(F)(F)C(F)(F)F [Perfluorooctanamide]; details: 2200 nM; in DMSO
Experimental: as §1

[11] = compound: FC(F)(F)C(F)(F)C(F)(F)C(F)(F)C(F)(F)C(F)(F)C(F)(F)I [1-Iodopentadecafluoroheptane]; details: in DMSO
Experimental: as §1

[12] = compound: FC(F)(F)C(F)(F)C(F)(F)C(F)(F)C(F)(F)C(F)(F)C(F)(F)CCI [1-Iodo-1H,1H,2H,2H-perfluorononane]; details: in DMSO
Experimental: as §1

[13] = compound: O=C(O)C(F)(F)C(F)(F)OC(F)(F)F [Perfluoro-3-methoxypropanoic acid]; details: 2200 nM; in DMSO
Experimental: as §1

[14] = compound: O=S(=O)(Cl)C(F)(F)C(F)(F)C(F)(F)C(F)(F)C(F)(F)C(F)(F)C(F)(F)C(F)(F)F [Perfluoro-1-octanesulfonyl chloride]; details: 2200 nM; in DMSO
Experimental: as §1

KF3CT:CXCL9/MIG
level (log10) [1]: -0.0035 ± 0.0021
level (log10) ([2]; 370 nM): 0.0035 ± 0.011
level (log10) ([2]; 1100 nM): 0.0015 ± 0.0035
level (log10) ([2]; 3300 nM): -0.004
level (log10) ([2]; 10000 nM): 0.005 ± 0.011
level (log10) ([3]; 2200 nM): 0.002 ± 0.014
level (log10) ([3]; 6700 nM): -0.0005 ± 0.012
level (log10) ([3]; 20000 nM): 0.0005 ± 0.011
level (log10) ([3]; 60000 nM): 0 ± 0.0028
level (log10) [4]: -0.0085 ± 0.00071
level (log10) [5]: -0.0085 ± 0.011
level (log10) [6]: -0.0085 ± 0.013
level (log10) [7]: 0.004 ± 0.0014
level (log10) (Perfluoropropanoic acid): 0.0045 ± 0.021
level (log10) [8]: 0.006 ± 0.016
level (log10) [9]: 0.0075 ± 0.0021
level (log10) (Perfluorobutanoic acid): 0.006
level (log10) [10]: 0.006 ± 0.023
level (log10) (Perfluoroundecanoic acid; 740 nM): 0.0155 ± 0.0064
level (log10) (Perfluoroundecanoic acid; 2200 nM): 0.009 ± 0.024
level (log10) (Perfluorooctanamide): 0.02 ± 0.02
level (log10) ([11]; 740 nM): 0.0105 ± 0.021
level (log10) ([11]; 2200 nM): 0.0095 ± 0.013
level (log10) ([11]; 6700 nM): 0.0115 ± 0.022
level (log10) ([11]; 20000 nM): 0.012 ± 0.014
level (log10) ([12]; 740 nM): -0.0035 ± 0.016
level (log10) ([12]; 2200 nM): 0.0085 ± 0.0092
level (log10) ([12]; 6700 nM): 0.0045 ± 0.00071
level (log10) ([12]; 20000 nM): -0.01 ± 0.025
level (log10) [13]: 0.0015 ± 0.022
level (log10) [14]: -0.003 ± 0.021

CASM3C:CD87/uPAR
level (log10) [1]: -0.021 ± 0.014
level (log10) ([2]; 370 nM): 0.0125 ± 0.011
level (log10) ([2]; 1100 nM): 0.0055 ± 0.025
level (log10) ([2]; 3300 nM): -0.004 ± 0.021
level (log10) ([2]; 10000 nM): 0.0085 ± 0.032
level (log10) ([3]; 2200 nM): -0.008 ± 0.013
level (log10) ([3]; 6700 nM): -0.006 ± 0.0057
level (log10) ([3]; 20000 nM): -0.0135 ± 0.012
level (log10) ([3]; 60000 nM): -0.015 ± 0.0042
level (log10) [4]: 0.015 ± 0.023
level (log10) [5]: -0.0495 ± 0.0078
level (log10) [6]: 0.001 ± 0.0014
level (log10) [7]: 0.0025 ± 0.033
level (log10) (Perfluoropropanoic acid): 0.021 ± 0.0099
level (log10) [8]: -0.0025 ± 0.011
level (log10) [9]: 0.003 ± 0.0042
level (log10) (Perfluorobutanoic acid): -0.0135 ± 0.0021
level (log10) [10]: -0.0365 ± 0.044
level (log10) (Perfluoroundecanoic acid; 740 nM): -0.0215 ± 0.015
level (log10) (Perfluoroundecanoic acid; 2200 nM): -0.045 ± 0.0085
level (log10) (Perfluorooctanamide): -0.012 ± 0.0014
level (log10) ([11]; 740 nM): -0.0035 ± 0.00071
level (log10) ([11]; 2200 nM): -0.0365 ± 0.03
level (log10) ([11]; 6700 nM): -0.019 ± 0.031
level (log10) ([11]; 20000 nM): -0.0195 ± 0.018
level (log10) ([12]; 740 nM): -0.0005 ± 0.016
level (log10) ([12]; 2200 nM): -0.011 ± 0.038
level (log10) ([12]; 6700 nM): -0.0105 ± 0.028
level (log10) ([12]; 20000 nM): -0.013 ± 0.028
level (log10) [13]: -0.0015 ± 0.016
level (log10) [14]: -0.006 ± 0.03

3C:CXCL8/IL-8
level (log10) [1]: 0.028 ± 0.079
level (log10) ([2]; 370 nM): -0.018 ± 0.034
level (log10) ([2]; 1100 nM): -0.022 ± 0.027
level (log10) ([2]; 3300 nM): -0.0245 ± 0.046
level (log10) ([2]; 10000 nM): 0.019 ± 0.082
level (log10) ([3]; 2200 nM): 0.007 ± 0.0099
level (log10) ([3]; 6700 nM): -0.001 ± 0.038
level (log10) ([3]; 20000 nM): -0.0275 ± 0.0092
level (log10) ([3]; 60000 nM): 0.028 ± 0.033
level (log10) [4]: 0.0075 ± 0.05
level (log10) [5]: 0.01 ± 0.025
level (log10) [6]: -0.013 ± 0.018
level (log10) [7]: 0.0055 ± 0.032
level (log10) (Perfluoropropanoic acid): 0.027 ± 0.048
level (log10) [8]: 0.005 ± 0.011
level (log10) [9]: 0.0325 ± 0.042
level (log10) (Perfluorobutanoic acid): -0.0065 ± 0.042
level (log10) [10]: 0.0235 ± 0.087
level (log10) (Perfluoroundecanoic acid; 740 nM): 0.0285 ± 0.05
level (log10) (Perfluoroundecanoic acid; 2200 nM): 0.0015 ± 0.0035
level (log10) (Perfluorooctanamide): -0.004 ± 0.017
level (log10) ([11]; 740 nM): 0.026 ± 0.061
level (log10) ([11]; 2200 nM): 0.004 ± 0.03
level (log10) ([11]; 6700 nM): 0.004 ± 0.0057
level (log10) ([11]; 20000 nM): 0.0655 ± 0.021
level (log10) ([12]; 740 nM): 0.0045 ± 0.036
level (log10) ([12]; 2200 nM): -0.0175 ± 0.016
level (log10) ([12]; 6700 nM): 0.0085 ± 0.011
level (log10) ([12]; 20000 nM): 0.0165 ± 0.005
level (log10) [13]: 0.014 ± 0.0057
level (log10) [14]: 0.0465 ± 0.061

BE3C:CXCL10/IP-10
level (log10) [1]: 0.0305 ± 0.039
level (log10) ([2]; 370 nM): 0.005 ± 0.034
level (log10) ([2]; 1100 nM): -0.0345 ± 0.035
level (log10) ([2]; 3300 nM): -0.0745 ± 0.03
level (log10) ([2]; 10000 nM): -0.043 ± 0.0071
level (log10) ([3]; 2200 nM): 0.0045 ± 0.005
level (log10) ([3]; 6700 nM): 0.0055 ± 0.0035
level (log10) ([3]; 20000 nM): 0.004 ± 0.0099
level (log10) ([3]; 60000 nM): 0.009 ± 0.0014
level (log10) [4]: -0.0075 ± 0.021
level (log10) [5]: -0.0175 ± 0.011
level (log10) [6]: 0.0075 ± 0.0092
level (log10) [7]: 0.0015 ± 0.011
level (log10) (Perfluoropropanoic acid): 0.0045 ± 0.0021
level (log10) [8]: -0.001 ± 0.0099
level (log10) [9]: -0.0055 ± 0.0035
level (log10) (Perfluorobutanoic acid): -0.006 ± 0.016
level (log10) [10]: -0.031 ± 0.04
level (log10) (Perfluoroundecanoic acid; 740 nM): 0.0225 ± 0.04
level (log10) (Perfluoroundecanoic acid; 2200 nM): 0.012 ± 0.02
level (log10) (Perfluorooctanamide): 0.016 ± 0.033
level (log10) ([11]; 740 nM): 0.0245 ± 0.046
level (log10) ([11]; 2200 nM): 0.0155 ± 0.037
level (log10) ([11]; 6700 nM): 0.01 ± 0.02
level (log10) ([11]; 20000 nM): 0.0195 ± 0.035
level (log10) ([12]; 740 nM): -0.008 ± 0.016
level (log10) ([12]; 2200 nM): 0.002 ± 0.013
level (log10) ([12]; 6700 nM): 0 ± 0.016
level (log10) ([12]; 20000 nM): 0.0025 ± 0.011
level (log10) [13]: -0.0005 ± 0.0021
level (log10) [14]: 0.0005 ± 0.0035

— the supplement of paper PMC10331698
